# Laboratory results as given in PubChem BioAssay AID504467 (National Center for Advancing Translational Sciences (NCATS), 2011).
# In all, about 330,000 compounds went through this assay and about 7,700 (2.3%) were called active. This list was built around the results that the source calls inconclusive (neither active nor inactive); the mix of calls is not that of the screen. Calls come from the whole dose curve; as a rule, active = well fitted inhibition curve with a large enough effect; inconclusive = small, poorly fitted or top-dose-only effect, or effect the other way; inactive = flat fitted curve, though single readings scatter. Where the call is inconclusive, the potency comes from a doubtful curve fit.
# Experiment: qHTS screen for small molecules that inhibit ELG1-dependent DNA repair in human embryonic kidney (HEK293T) cells expressing luciferase-tagged ELG1; note: nearly all actives have a fitted effect of over 55% in size
# Conditions: HEK293T ELG1-luciferase reporter, luminescence, 16 h, DNA damage induced by 5-fluorouridine; series mostly up to 46.1 µM
# Procedure, shortened: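 DMSO vehicle served as the neutral condition. Each well held 2,000 cells given 5-fluorouridine plus compound; after 16 hr at 37 °C/5% CO2, ONE-Glo was added and luciferase measured 30 min later.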
# Potency is the fitted concentration of half-maximal effect.
row,SMILES,Potency
1,Cc1ccc2nc(Cc3ccc(N)cc3)oc2c1,"inconclusive: 18.4 µM [activator, partial curve]"
2,CN(C)S(=O)(=O)c1ccc(NC(=O)COC(=O)c2n[nH]c3ccccc23)cc1,"inconclusive: 23.1 µM [inhibitor, partial curve, poor fit]"
3,O=C(CSc1nc(-c2ccccc2)c(-c2ccccc2)o1)Nc1nncs1,inactive
4,Cc1nc2ccccc2c(=O)n1/N=C/c1ccc(N(C)C)cc1,inactive
5,C=CCNc1nc(C(=O)OCC(=O)c2ccc(OC)cc2OC)cs1,"inconclusive: 2.59 µM [activator, full curve, poor fit]"
6,CC(C)(C)c1ccc(/C=N/Nc2cccc(C(=O)O)c2)cc1,"inconclusive: 0.58 µM [activator, partial curve]"
7,O=C(NCCCN1CCOCC1)C(=O)N/N=C/c1ccccc1Cl,"inconclusive: 20.6 µM [activator, partial curve, poor fit]"
8,COC(=O)c1c(C)cc(OC(C)=O)c(C)c1OC(C)=O,"inconclusive: 23.1 µM [inhibitor, single point]"
9,COc1ccc(-c2cc(C(=O)N3CCCCC3)c3ccccc3n2)cc1OC,"inconclusive: 23.1 µM [inhibitor, single point]"
10,CC(C)C[C@H](NC(=O)[C@H]1N2C(=O)c3ccccc3C2SC1(C)C)C(=O)N[C@@H](Cc1ccccc1)C(=O)O (stereo partly drawn),"inconclusive: 0.651 µM [activator, partial curve, poor fit]"
11,O=c1oc2ccc3ccccc3c2cc1-c1nnc(-c2ccccc2)o1,"inconclusive: 29.1 µM [inhibitor, partial curve, poor fit]"
12,Cc1nn(-c2ccccc2)c(Cl)c1/C=N/Nc1nc2ccccc2[nH]1,"inconclusive: 0.651 µM [activator, full curve]"
13,Cc1ccc(C)c(-n2cc(CNC(C)Cn3cncn3)c(-c3ccccc3)n2)c1 (stereo not drawn),"inconclusive: 29.1 µM [inhibitor, single point]"
14,CCc1ccccc1NC(=O)c1cc(C2CC2)on1,"inconclusive: 18.4 µM [activator, partial curve]"
15,CC(=O)c1cc(Cl)ccc1OCC(=O)NC1CCCC1,"inconclusive: 9.2 µM [activator, partial curve]"
16,Cc1csc2c(=O)n(CCO)c(=O)[nH]c12,inactive
17,CC(C)N(C(=O)CSc1nnc(Cc2csc(Nc3ccccc3)n2)o1)C(C)C,"inconclusive: 29.1 µM [inhibitor, single point]"
18,O=C(C1CCN(S(=O)(=O)c2ccc(Cl)cc2)CC1)N1CCN(c2ccccn2)CC1,"inconclusive: 25.9 µM [inhibitor, single point]"
19,C/C(Cl)=C/Cn1c(=O)c2c(nc(Br)n2Cc2ccccc2)n(C)c1=O,"inconclusive: 29.1 µM [inhibitor, single point]"
20,NS(=O)(=O)c1ccc(NCC2COc3ccccc3O2)c([N+](=O)[O-])c1 (stereo not drawn),inactive
21,Cn1c(=O)c2c(nc(SCCN3CCOCC3)n2Cc2cccc3ccccc23)n(C)c1=O,"inconclusive: 14.6 µM [inhibitor, partial curve]"
22,Cc1nc2ccc(NC(=O)Cc3ccsc3)cc2s1,"inconclusive: 11.6 µM [activator, partial curve]"
23,CC(Sc1nc2ccc(C(=O)c3ccccc3)cc2[nH]1)C(=O)O (stereo not drawn),inactive

# Reprinted at random: 6 compounds from above, in no set order.
row,SMILES,Potency
20,NS(=O)(=O)c1ccc(NCC2COc3ccccc3O2)c([N+](=O)[O-])c1 (stereo not drawn),inactive
13,Cc1ccc(C)c(-n2cc(CNC(C)Cn3cncn3)c(-c3ccccc3)n2)c1 (stereo not drawn),"inconclusive: 29.1 µM [inhibitor, single point]"
12,Cc1nn(-c2ccccc2)c(Cl)c1/C=N/Nc1nc2ccccc2[nH]1,"inconclusive: 0.651 µM [activator, full curve]"
23,CC(Sc1nc2ccc(C(=O)c3ccccc3)cc2[nH]1)C(=O)O (stereo not drawn),inactive
18,O=C(C1CCN(S(=O)(=O)c2ccc(Cl)cc2)CC1)N1CCN(c2ccccn2)CC1,"inconclusive: 25.9 µM [inhibitor, single point]"
16,Cc1csc2c(=O)n(CCO)c(=O)[nH]c12,inactive

# Next part.

row,SMILES,Potency
1,COc1ccc(/C=N/Nc2cc(N3CCOCC3)nc(C)n2)c(OC)c1,"inconclusive: 18.3 µM [inhibitor, partial curve, poor fit]"
2,CC(=O)NCCc1ccc(C(=O)COC(=O)c2cc(C)oc2C)cc1,inactive
3,O=C(O)CC(NS(=O)(=O)c1ccc2c(c1)OCCO2)c1ccccc1[N+](=O)[O-] (stereo not drawn),"inconclusive: 16.4 µM [activator, single point]"
4,Nc1nc(-c2cc(-c3ccccc3)no2)cs1,"inconclusive: 3.66 µM [activator, partial curve]"
5,COc1ccc(CC(=O)N/N=C/c2cc(Br)cs2)cc1OC,"inconclusive: 7.94 µM [inhibitor, partial curve]"
6,C=CCOc1ccc(C2C(C#N)=C(N)N(Nc3ccccc3)C3=C2C(=O)CC(C)(C)C3)cc1OC (stereo not drawn),"inconclusive: 32.6 µM [inhibitor, single point]"
7,O=C(NNc1nc(-c2ccc(F)cc2)cs1)c1ccccc1,"inconclusive: 2.91 µM [inhibitor, full curve]"
8,Cc1cccc(-c2cc3nc(C)cc(N4CC(C)CC(C)C4)n3n2)c1 (stereo not drawn),"inconclusive: 8.2 µM [inhibitor, partial curve, poor fit]"
9,CCOc1ccc(-c2nnc(-c3ccco3)o2)cc1,"inconclusive: 2.31 µM [activator, partial curve]"
10,Cc1nc(NC(=O)c2ccc(Br)s2)sc1C(=O)N(C)C,"inconclusive: 10.3 µM [activator, partial curve]"
11,Nc1ccc(-c2cn3cccnc3n2)cc1,"inconclusive: 20.6 µM [activator, partial curve]"
12,CC(C)=CC(=O)OCC(=O)Nc1cccc([N+](=O)[O-])c1,inactive
13,CSc1ccc(C(=S)N2CCCCCC2)cc1,"inconclusive: 5.17 µM [activator, full curve, poor fit]"
14,CC1Cc2ccccc2N1S(=O)(=O)c1cccc(C(=O)N2Cc3ccccc3CC2C(N)=O)c1 (stereo not drawn),inactive
15,COc1ccc(OC)c(C(=O)c2ccc(C(=O)N3CCCCC3)cc2)c1,inactive
16,CCC(=O)Nc1nc2ccccc2n1Cc1ccccc1Cl,"inconclusive: 4.61 µM [inhibitor, full curve, poor fit]"
17,CCC(C(=O)Nc1cc(C)nn1-c1nc(C)cc(C)n1)c1ccccc1 (stereo not drawn),inactive
18,O=C(NCc1cccc(CNC(=O)Nc2cccc(O)c2)c1)Nc1cccc(O)c1,"inconclusive: 16.4 µM [inhibitor, single point]"
19,COc1ccc(OCc2nc3ccccc3[nH]2)cc1,"inconclusive: 3.66 µM [activator, full curve]"
20,C[C@H]1C(c2ccc(F)cc2)=NN(c2ccccc2)[C@@H]1CO,inactive
21,CC(=O)N1c2ccc(S(=O)(=O)N(C)CC(=O)Nc3cccc(C)c3)cc2CC1C (stereo not drawn),inactive
22,CC1CCC(=O)N(CCC#N)CC1 (stereo not drawn),"inconclusive: 1.3 µM [inhibitor, single point]"
23,CCC1(C)Cc2nc3sc(C(=O)O)c(N)c3cc2CO1 (stereo not drawn),"inconclusive: 32.6 µM [activator, single point]"

row,SMILES,Potency
1,Cn1ccnc1SCC(=O)NC1(C#N)CCCCC1,inactive
2,Cc1ccc(N2C(=O)c3cccc4c(Oc5ccccc5[N+](=O)[O-])ccc(c34)C2=O)c(C)c1,"inconclusive: 10.3 µM [inhibitor, partial curve]"
3,CC1=NN(c2ccccc2)C(=O)C1(C)C,inactive
4,COC(=O)c1c(-c2ccc(Br)cc2)csc1NC(=O)Cc1ccc(OC)c(OC)c1,active: 18.4 µM
5,CCOc1ccc2nc(SC3CC(=O)N(c4ccc(C)cc4)C3=O)sc2c1 (stereo not drawn),"inconclusive: 0.92 µM [activator, partial curve, poor fit]"
6,COc1ccc(S(=O)(=O)N2CCCCC2)cc1NC(=O)Cn1cnc2ccccc2c1=O,inactive
7,CCn1cc(-c2ccccc2)c(C(=O)O)c1-c1ccc(OC)cc1,inactive
8,CCn1c2ccccc2c2cc(/C=N/NC(=O)c3cc(O)cc(O)c3)ccc21,"inconclusive: 29.1 µM [inhibitor, single point]"
9,Cc1ccc(S(=O)(=O)NCCNc2ccc(Br)c(C)c2)cc1,"inconclusive: 0.517 µM [activator, single point]"
10,CC(=O)Nc1ccc(NC(=O)CCSCCc2ccccn2)cc1,inactive
11,COC(=O)c1cc(OC)c(OC)c(OC)c1N,"inconclusive: 16.4 µM [activator, partial curve, poor fit]"
12,Cc1cc(C)n2nc(/C(C#N)=C/c3ccccn3)c(C#N)c2n1,inactive
13,COC(=O)c1ccc(COc2ccccc2/C=C(\C#N)C(=O)NC(C)C)cc1,"inconclusive: 29.1 µM [activator, single point]"
14,COc1ccc(NC(=O)Cn2c(=O)n(CC3CCCO3)c(=O)c3cc(OC)c(OC)cc32)cc1OC (stereo not drawn),"inconclusive: 1.83 µM [inhibitor, partial curve, poor fit]"
15,O=C(O)c1ccc(-c2ccc(-c3ccccc3)cc2)s1,"inconclusive: 0.0231 µM [activator, full curve, poor fit]"
16,O=C(COC(=O)C1CCC(N2C(=O)C3C4CCC(C4)C3C2=O)CC1)c1ccc(F)cc1 (stereo not drawn),inactive
17,CCCCNC(=O)CCn1c(=O)c2ccccc2n(CC(=O)N2CC(C)CC(C)C2)c1=O (stereo not drawn),"inconclusive: 29.1 µM [activator, single point]"
18,Cc1ccn2c(NCc3ccc4c(c3)OCO4)c(-c3ccc(O)cc3)nc2c1,"inconclusive: 23.1 µM [activator, single point]"
19,O=C(Cc1cccs1)Nc1ccccc1-c1nc2ccccc2[nH]1,"inconclusive: 16.4 µM [inhibitor, single point]"
20,C=CCN(C(=O)c1cccc(S(=O)(=O)N2CCN(C)CC2)c1)c1nc(-c2ccccc2)cs1,"inconclusive: 18.4 µM [inhibitor, single point]"
21,O=C(Nc1ccc(Oc2ccc(NC(=O)C3CCCO3)cc2)cc1)C1CCCO1 (stereo not drawn),"inconclusive: 12.6 µM [inhibitor, partial curve, poor fit]"
22,Cc1ccsc1C(=O)NCCc1c[nH]c2ccccc12,"inconclusive: 16.4 µM [activator, partial curve]"
